Measurements from PubChem BioAssay AID540276 (National Center for Advancing Translational Sciences (NCATS), 2011).
Values joined by “and” are separate entries in the source; they are usually repeats but may differ in a detail not shown here. Identical values can stand only once. Out of some 300,000 compounds screened, about 5,400 (1.8%) were called active. The shares of active, inactive and inconclusive entries below differ from those in the screen. Calls come from the whole dose curve; tested in HEK293 cells. Where the call is inconclusive, the potency comes from a doubtful curve fit.
Potency is the fitted concentration of half-maximal effect.

Experiment: qHTS for inhibitors of binding or entry into cells for Marburg Virus
Settings: Marburg virus pseudotyped entry inhibition, cell reporter; series mostly up to 37.8 µM
In the case of `O=C(O)Cc1ccc2c(c1)N(S(=O)(=O)c1cccc(C(F)(F)F)c1)CC(C(=O)O)O2` (stereo not drawn), the Potency is reported as inconclusive: 7.94 µM [activator, partial curve, poor fit].
In the case of `N#Cc1c(SCC(=O)OCc2ccccc2)nsc1SCC(=O)OCc1ccccc1`, the Potency is reported as “inactive”.
In the case of `COc1ccccc1N(Cc1ccccc1)S(=O)(=O)c1cccc(C(=O)Nc2cc(C)ccn2)c1`, the Potency is reported as inconclusive: 3.98 µM [inhibitor, full curve, poor fit].
With `CCOC(=O)N1CCN(S(=O)(=O)c2ccc(C(=O)N(CCN(CC)CC)c3nc4c(C)cccc4s3)cc2)CC1` the Potency was inconclusive: 35.5 µM [inhibitor, single point].
For `O=C(Nc1nc2nccc(-c3ccccc3)n2n1)c1ccccc1`, the Potency was inconclusive: 6.31 µM [activator, single point].
In the case of `CCOC(=O)C1=C(CSc2nc3ccccc3s2)NC(=O)NC1c1cc(C)ccc1C` (stereo not drawn), the Potency is reported as inconclusive: 18.3 µM [inhibitor, single point].
With `Cn1ccnc1COc1ccc(/C=N/O)cc1` the Potency was “inactive”.
In the case of `O=C(CCCCC(=O)NN=Cc1ccccc1O)NN=Cc1ccccc1O`, the Potency is reported as inconclusive: 2.82 µM [inhibitor, full curve, poor fit].
For `Cc1nc(-c2ccc(NC(=O)Cc3ccccc3)cc2)cs1`, the Potency was inconclusive: 35.5 µM [activator, single point].
In the case of `N/C(=N\OC(=O)Cc1ccc(Cl)cc1)c1cccnc1`, the Potency is reported as “inactive”.
With `CCN(CCn1cccn1)Cc1c(C(=O)N2C[C@@H](C)O[C@@H](C)C2)nc2ccc(Cl)cn12` the Potency was inconclusive: 6.31 µM [activator, single point].
With `Cc1oc(-c2ccccc2Cl)nc1CS(=O)CC(=O)NCc1ccccc1Cl` (stereo not drawn) the Potency was “inactive”.
For `CCOc1ccc(CCNC(=O)c2cc(C)nc3ccccc23)cc1OCC`, the Potency was “inactive”.
In the case of `CC(C)(C)NC(=O)Cn1c(SCC(=O)NC2CCCC2)nc2ccccc21`, the Potency is reported as “inactive”.
In the case of `O=C(C1CCCN(S(=O)(=O)c2ccc(Cl)cc2)C1)N(Cc1cccs1)C1CC1` (stereo not drawn), the Potency is reported as “inactive and inconclusive: 35.5 µM [inhibitor, single point]”.
In the case of `COc1ccc(N=C2C(=Nc3ccc(OC)cc3)N(c3ccc(OC)cc3)C(=S)N2c2ccccc2)cc1`, the Potency is reported as “inactive”.
With `Fc1cccc(Cc2noc(CN3CCN(C4CCc5ccccc5C4)CC3)n2)c1` (stereo not drawn) the Potency was “inactive”.
In the case of `COc1cccc([C@@H]2[C@H](C)C[C@H]3CC(=O)N4[C@H](CC(=O)N32)C[C@@H](C)[C@@H]4c2cccc(OC)c2)c1`, the Potency is reported as inconclusive: 1.33 µM [inhibitor, single point].
In the case of `Cc1ccc(C(=O)NCCSCc2ccc(Cl)cc2Cl)cc1[N+](=O)[O-]`, the Potency is reported as inconclusive: 35.5 µM [inhibitor, single point].
For `O=C(Nc1ccnn1C1CCN(C(=O)CCc2ccc(F)cc2)CC1)C1CCOC1` (stereo not drawn), the Potency was inconclusive: 35.5 µM [activator, single point].
For `CCc1cc(-c2[nH]ncc2-c2ccc3c(c2)OCO3)c(O)cc1O`, the Potency was inconclusive: 14.6 µM [inhibitor, partial curve, poor fit].
With `Cc1cc(NC(=O)CN2C(=O)/C(=C/c3cccc(Br)c3)SC2=S)no1` the Potency was “inactive”.
In the case of `O=[N+]([O-])c1cc(-c2nnc(-c3ccccc3)o2)ccc1Oc1ccc(Cl)cc1`, the Potency is reported as inconclusive: 20 µM [activator, single point].
For `CCCCOP(=O)(OCCCC)C1(NS(=O)(=O)c2ccccc2)C=CC(=O)c2ccccc21` (stereo not drawn), the Potency was inconclusive: 11.2 µM [inhibitor, partial curve, poor fit].
In the case of `Cc1ccc(Cl)cc1NC(=O)C1CCN(C(=O)c2cnn(-c3ccccc3)c2-n2cccc2)CC1`, the Potency is reported as inconclusive: 3.16 µM [inhibitor, partial curve, poor fit].
For `O=C(NCC(=O)N(c1cccnc1)C(C(=O)NC1CCCCC1)c1ccccc1F)c1ccco1` (stereo not drawn), the Potency was “inactive”.
For `CCOC(=O)Cn1c(=N)n(Cc2ccccc2)c2ccccc21`, the Potency was “inactive”.
For `Brc1ccc2c(c1)C(c1cccs1)=NNC(c1cccnc1)=N2`, the Potency was inconclusive: 25.9 µM [inhibitor, single point].
With `COc1ccccc1N1CCN(C(=O)c2ccc3nc(-c4ccco4)c(-c4ccco4)nc3c2)CC1` the Potency was active: 20.6 µM.
In the case of `Cc1nc(CS(=O)(=O)c2ccccc2)cc(N2CCOCC2)n1`, the Potency is reported as inconclusive: 10 µM [activator, partial curve, poor fit].
With `COc1cc(/C=N\Nc2nc(-c3cccs3)c(NC(C)=O)s2)ccc1O` the Potency was “inactive”.
In the case of `Cc1nnc(NC(=O)CN2C(=O)c3ccccc3S2(=O)=O)s1`, the Potency is reported as inconclusive: 0.794 µM [activator, partial curve, poor fit].
For `COc1ccc(C(=O)OC(C)C(=O)Nc2cc(C(F)(F)F)ccc2Cl)c(OC)c1OC` (stereo not drawn), the Potency was inconclusive: 10 µM [inhibitor, partial curve, poor fit].
With `O=C(Nc1ccccc1N1CCOCC1)c1cccs1` the Potency was “inactive”.
In the case of `CC(=O)/C=C(\C)N=Nc1c(O)[nH]c2ccccc12`, the Potency is reported as “inactive”.
In the case of `CCCCOc1ccc(C2=NNC(=O)CC2)cc1`, the Potency is reported as “inactive”.
With `N/C(=N\OCC(=O)Nc1ccccc1)c1nonc1N` the Potency was “inactive”.
With `CC(=O)N1CCc2c(sc(NC(=O)CCS(=O)(=O)c3ccccc3)c2C#N)C1` the Potency was inconclusive: 35.5 µM [inhibitor, single point].
For `Cn1cc(C(=O)Nc2ccc(C#N)cc2)c2ccccc2c1=O`, the Potency was inconclusive: 35.5 µM [inhibitor, single point].
For `COc1ccc(CCn2c(=O)c3cccnc3n(CC(=O)Nc3ccc(C)cc3C)c2=O)cc1OC`, the Potency was “inactive”.
With `COc1ccc(C2c3ccc4ccccc4c3Oc3ncn(CCO)c(=N)c32)cc1` (stereo not drawn) the Potency was inconclusive: 7.08 µM [inhibitor, full curve, poor fit].
In the case of `COc1cc(S(=O)(=O)Nc2ccc(C)cc2)ccc1N=Cc1c(C)[nH]n(-c2ccc(C)cc2)c1=O`, the Potency is reported as inconclusive: 10 µM [inhibitor, partial curve, poor fit].
For `Cc1sc2nc(COC(=O)c3ccc(N4CCCC(C)C4)c([N+](=O)[O-])c3)[nH]c(=O)c2c1C` (stereo not drawn), the Potency was inconclusive: 35.5 µM [inhibitor, single point].
